One series deals with T1, ATF1 (Homo sapiens) (UniProt P18846).
T1 sequence (looked up, limits assumed): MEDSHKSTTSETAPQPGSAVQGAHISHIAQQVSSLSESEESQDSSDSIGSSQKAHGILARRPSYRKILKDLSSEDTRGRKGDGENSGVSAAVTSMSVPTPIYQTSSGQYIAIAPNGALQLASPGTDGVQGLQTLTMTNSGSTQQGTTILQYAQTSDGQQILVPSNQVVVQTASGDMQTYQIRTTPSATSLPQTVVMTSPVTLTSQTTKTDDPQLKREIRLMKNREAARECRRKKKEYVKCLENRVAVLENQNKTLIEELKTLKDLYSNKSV
As to the kind of experiment: binding assay. The following applies: MITOMI-type chip (QPID); rabbit reticulocyte lysate, 1 h; wash 50 mM HEPES; temperature not stated; DNA spotted at 0.0156-2 uM; protein translated in vitro; protein details: N-cMyc, C-His6 (kept); label: Cy5 on the primer strand.

Chains of the proteins cited; added tags and fusions are not shown. A line that says so, or that is headed by a name, gives the form on record, which may keep a tag or linker.
c-Jun (Homo sapiens), one chain, as listed by the source: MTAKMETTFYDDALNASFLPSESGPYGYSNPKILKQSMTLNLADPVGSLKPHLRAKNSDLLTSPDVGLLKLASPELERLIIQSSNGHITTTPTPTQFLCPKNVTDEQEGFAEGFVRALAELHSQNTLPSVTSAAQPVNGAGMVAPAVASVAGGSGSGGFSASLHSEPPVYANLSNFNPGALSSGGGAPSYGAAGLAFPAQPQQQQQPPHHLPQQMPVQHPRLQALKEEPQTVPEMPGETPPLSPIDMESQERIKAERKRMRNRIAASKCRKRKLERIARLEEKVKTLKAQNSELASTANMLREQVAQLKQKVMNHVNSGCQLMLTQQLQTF
c-Fos/c-Jun (Homo sapiens), one chain, as listed by the source, chain 1 of 2: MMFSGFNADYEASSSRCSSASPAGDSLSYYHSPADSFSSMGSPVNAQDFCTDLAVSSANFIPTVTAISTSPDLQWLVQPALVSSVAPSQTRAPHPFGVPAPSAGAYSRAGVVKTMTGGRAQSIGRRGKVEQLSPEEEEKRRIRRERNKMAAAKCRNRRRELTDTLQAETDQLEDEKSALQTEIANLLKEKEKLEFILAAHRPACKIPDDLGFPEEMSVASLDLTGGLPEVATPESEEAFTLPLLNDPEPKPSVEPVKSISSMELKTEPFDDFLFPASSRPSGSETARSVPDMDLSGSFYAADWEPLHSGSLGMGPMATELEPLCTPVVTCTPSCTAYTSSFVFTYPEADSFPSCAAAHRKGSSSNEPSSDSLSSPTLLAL

The target of another series is T2, ATF3 (Homo sapiens) (UniProt P18847).
T2 sequence (looked up, limits assumed): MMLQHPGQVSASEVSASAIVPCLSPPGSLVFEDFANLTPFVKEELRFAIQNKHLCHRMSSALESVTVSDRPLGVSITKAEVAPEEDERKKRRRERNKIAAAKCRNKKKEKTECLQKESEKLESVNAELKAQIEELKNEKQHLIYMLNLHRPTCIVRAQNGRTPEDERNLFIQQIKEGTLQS
The series can be described thus: binding assay. The following applies: MITOMI-type chip (QPID); rabbit reticulocyte lysate, 1 h; wash 50 mM HEPES; temperature not stated; DNA spotted at 0.0156-2 uM; protein translated in vitro; protein details: N-cMyc, C-His6 (kept); label: Cy5 on the primer strand.

The test system of another series is c-Jun (Homo sapiens). The series can be described thus: binding assay. The following applies: MITOMI-type chip (QPID), rabbit reticulocyte lysate, 1 h, wash 50 mM HEPES, temperature not stated, DNA spotted at 0.0156-2 uM, protein translated in vitro, protein details: N-cMyc, C-His6 (kept), label: Cy5 on the primer strand.
In series [1] the test system is c-Fos/c-Jun (Homo sapiens). As to the kind of experiment: binding assay. As to conditions: MITOMI-type chip (QPID); rabbit reticulocyte lysate, 1 h; wash 50 mM HEPES; temperature not stated; DNA spotted at 0.0156-2 uM; protein translated in vitro; label: Cy5 on the primer strand; variant of oligo 1 (CRE).
A further series concerns c-Jun + c-Fos. As to the kind of experiment: MITOMI (QPID). As to conditions: QPID microfluidic MITOMI; 1 h incubation of in vitro expressed extract (about 25 ul, 50 ng protein) with spotted Cy5-dsDNA; protein translated in vitro; label: Cy5.
In the next series the test system is c-Jun. The series can be described thus: MITOMI (QPID). The following applies: QPID microfluidic MITOMI; 1 h incubation of in vitro expressed extract (about 25 ul, 50 ng protein) with spotted Cy5-dsDNA; protein translated in vitro; label: Cy5.
For the next series, the system named is c-Fos. The series can be described thus: MITOMI (QPID). The following applies: QPID microfluidic MITOMI; 1 h incubation of in vitro expressed extract (about 25 ul, 50 ng protein) with spotted Cy5-dsDNA; protein translated in vitro; label: Cy5.

Broadly, the Kd is the free concentration of one partner at which half of the binding sites on the other are occupied at equilibrium, for simple one-to-one binding. Read a low Kd as tighter binding.

For part of these data: Protein sequences can lack the tags named with them. For part of these data: Construct, isoform or probe ends are uncertain for at least one entry. For part of these data: No signal at the amounts used counts as a negative.

Consider “CGCCCGGCGGACACCTAACGTCACTTCCGCTTGGGTCGCTCCGGCGGTATGAC (double strand) [77.ATF1_CRE_hs_29]”, for which the values for the Kd in the series with ATF1 (Homo sapiens) and in the series with ATF3 (Homo sapiens) were 320 nM and more than 2000 nM, respectively.
Take “CGCCCGTCGCTCTCAATTCGTCACCAGGAGGAAGACGGCTCCGGCGGTATGAC (double strand) [42.ATF3_CRE_hs_28]”: the Kd with ATF1 (Homo sapiens) was 301 nM; with ATF3 (Homo sapiens), more than 2000 nM.
On the same counts, the results for “CGCCCTCGGGAGGCGCAGCGTCAGGGCGGGCGGCAGCACTCCGGCGGTATGAC (double strand) [32.ATF3_CRE_hs_18]” are 570 nM and more than 2000 nM.
Regarding “CGCCGATTGGCCGGCTGGCGTCACGTGGCCTCCATCAGCTCCGGCGGTATGAC (double strand) [36.ATF3_CRE_hs_22]”, the Kd with ATF1 (Homo sapiens) is 328 nM; with ATF3 (Homo sapiens), more than 2000 nM.
Taken in the same sequence, the figures for “CGCCGGAAGGCGTAAGTGCGTCACGGAGAGCATCTCGGCTCCGGCGGTATGAC (double strand) [75.ATF1_CRE_hs_27]” were 327 nM and more than 2000 nM.
As for “CGCGCCAGACCGGAGGTGCGTCATTCACCGGCGACGCCCTCCGGCGGTATGAC (double strand) [98.ATF1_ATF3_CRE_hs_16]”, the equilibrium dissociation constant (Kd) in the series with ATF1 (Homo sapiens) was 921 nM; in the series with ATF3 (Homo sapiens) it was more than 2000 nM.
On to “CGCGCGCGCAGGCGCCTGCGTCATTCACGCGCGCCGCACTCCGGCGGTATGAC (double strand) [101.ATF1_ATF3_CRE_hs_19]”, for which the Kd in the series with ATF1 (Homo sapiens) is 703 nM; in the series with ATF3 (Homo sapiens), more than 2000 nM.
Turning to “CGCGCGCTGGCGCGCTGTCGTCACGATTACGCGGCCAGCTCCGGCGGTATGAC (double strand) [61.ATF1_CRE_hs_13]”, the Kd is 144 nM in the series with ATF1 (Homo sapiens) and more than 2000 nM with ATF3 (Homo sapiens).
On the same counts, the results for “CGCGCTGGACCTGCGGCGCGTCACGTGGCGGCTGCCCCCTCCGGCGGTATGAC (double strand) [33.ATF3_CRE_hs_19]” are 281 nM and more than 2000 nM.
As for “CGCGCTGGCGTTAGGAGACGTCACTCCCGCGCATAACTCTCCGGCGGTATGAC (double strand) [81.ATF1_CRE_hs_33]”, the Kd with ATF1 (Homo sapiens) was 162 nM; in the series with ATF3 (Homo sapiens) it was more than 2000 nM.
Taken in the same sequence, the figures for “CGCGGACGCGGAACAGGGCGTCACCCAGGCTCGTAAACCTCCGGCGGTATGAC (double strand) [69.ATF1_CRE_hs_21]” were 256 nM and more than 2000 nM.
Taken in the same sequence, the figures for “CGCGGCGCGCGGCTGTGTCGTCATACTTGCGCGCCGACCTCCGGCGGTATGAC (double strand) [67.ATF1_CRE_hs_19]” were 163 nM and more than 2000 nM.
On the same counts, the results for “CGCGGCTCCCGCATAGGGCGTCACGTACGTTTAACGTCCTCCGGCGGTATGAC (double strand) [82.ATF1_CRE_hs_34]” are 787 nM and more than 2000 nM.
As for “CGCTCCTGGCAGTCCCCGCGTCACGTGGGGCCCTACCTCTCCGGCGGTATGAC (double strand) [35.ATF3_CRE_hs_21]”, the Kd with ATF1 (Homo sapiens) and in the series with ATF3 (Homo sapiens) was more than 2000 nM in each case.
“CGCTCGTGCGCGCGGGCCCGTCAGAGTGAGAAGCCCCGCTCCGGCGGTATGAC (double strand) [29.ATF3_CRE_hs_15]”: the Kd in the series with ATF1 (Homo sapiens) and with ATF3 (Homo sapiens) was more than 2000 nM in each case.
Regarding “CGCTGGGCGCCTTTTCCGCGTCACTCCGTAACCGGAAGCTCCGGCGGTATGAC (double strand) [50.ATF1_CRE_hs_2]”, the Kd is 295 nM in the series with ATF1 (Homo sapiens) and more than 2000 nM in the series with ATF3 (Homo sapiens).
On the same counts, the results for “CGCTTCTCCCCTACCCGCCCCAGCGTGCCGGGGAATGCCTCCGGCGGTATGAC (double strand) [122.Unbound_non_CRE_1]” are more than 2000 nM and more than 2000 nM.
Consider “GGCCACTACCGCTTCCTCCACAAATAAAATTGGTTTTCTCCACCAAGGAAGT (double strand) [oligo 7 (Mutant)]”, for which the Kd (with c-Jun (Homo sapiens) (variant of oligo 1 (CRE)); in series [1]) was more than 2000 nM each time.
Take “GGCCACTACCGCTTCCTCCACAAATAAAATTGGTTTTCTCCACCAAGGAAGT (double strand) [oligo 7 (mutant)]”: the binding result in the series on c-Jun + c-Fos, with c-Jun and in the series with c-Fos was “no binding” each time.
With “GGCCACTACCGCTTCCTCCACATGACGTCATGGTTTTCTCCACCAAGGAAGT (double strand) [oligo 1 (CRE)]”, the binding result with c-Fos is “no binding”.
As to “GGCCACTACCGCTTCCTCCACATGAGTCATGGTTTTCTCCACCAAGGAAGT (double strand) [oligo 3 (AP-1)]”, the binding result with c-Fos is “no binding”.
On to “GGCCACTACCGCTTCCTCCACATGGCGTCATGGTTTTCTCCACCAAGGAAGT (double strand) [oligo 5 (CRE half-site)]”, for which the binding result with c-Jun and in the series with c-Fos was “no binding” each time.
As for “GGCCACTACCGCTTCCTCCACATGGCGTCATGGTTTTCTCCACCAAGGAAGT (double strand) [oligo 5 (HS)]”, the Kd in the series with c-Jun (Homo sapiens) (variant of oligo 1 (CRE)) was more than 2000 nM.
Take “TTATCCACTTGCGCTCGCCGAGTGGCGTCACCAGCGGTACTGTAATGACGAT (double strand) [oligo 6 (CRE half-site)]”: the binding result in the series with c-Jun and in the series on c-Fos was “no binding” throughout.
“TTATCCACTTGCGCTCGCCGAGTGGCGTCACCAGCGGTACTGTAATGACGAT (double strand) [oligo 6 (HS)]” gave an equilibrium dissociation constant (Kd) in the series with c-Jun (Homo sapiens) of more than 2000 nM.
In the case of “TTATGACCTGGGAGTGACGTCATGGAATCCACAGA (double strand) [oligo 2 (CRE)]”, the binding result in the series with c-Fos was “no binding”.
As for “TTATGACCTGGGAGTGAGTCAATGGAATCCACAGA (double strand) [oligo 4 (AP-1)]”, the Kd in the series with c-Jun (Homo sapiens) (variant of oligo 2 (CRE)) is more than 2000 nM. The binding result with c-Jun and in the series with c-Fos was “no binding” in each case.

For the origin of these results see publication PMC4824076, “Integrated microfluidic approach for quantitative high-throughput measurements of transcription factor binding affinities”.
